According to PMC10162545:
No constants are given. Whether binding was seen depends on the method and setting. Binding seen in cells or lysates may run through a third protein. Some entries that bind do so weakly or less than the wild type. Tags and fused reporters may be left off the sequences shown.

Biological target: T1, PINK1::Myc (genomically tagged PINK1) (Drosophila) (UniProt Q0KHV6)
T1 sequence: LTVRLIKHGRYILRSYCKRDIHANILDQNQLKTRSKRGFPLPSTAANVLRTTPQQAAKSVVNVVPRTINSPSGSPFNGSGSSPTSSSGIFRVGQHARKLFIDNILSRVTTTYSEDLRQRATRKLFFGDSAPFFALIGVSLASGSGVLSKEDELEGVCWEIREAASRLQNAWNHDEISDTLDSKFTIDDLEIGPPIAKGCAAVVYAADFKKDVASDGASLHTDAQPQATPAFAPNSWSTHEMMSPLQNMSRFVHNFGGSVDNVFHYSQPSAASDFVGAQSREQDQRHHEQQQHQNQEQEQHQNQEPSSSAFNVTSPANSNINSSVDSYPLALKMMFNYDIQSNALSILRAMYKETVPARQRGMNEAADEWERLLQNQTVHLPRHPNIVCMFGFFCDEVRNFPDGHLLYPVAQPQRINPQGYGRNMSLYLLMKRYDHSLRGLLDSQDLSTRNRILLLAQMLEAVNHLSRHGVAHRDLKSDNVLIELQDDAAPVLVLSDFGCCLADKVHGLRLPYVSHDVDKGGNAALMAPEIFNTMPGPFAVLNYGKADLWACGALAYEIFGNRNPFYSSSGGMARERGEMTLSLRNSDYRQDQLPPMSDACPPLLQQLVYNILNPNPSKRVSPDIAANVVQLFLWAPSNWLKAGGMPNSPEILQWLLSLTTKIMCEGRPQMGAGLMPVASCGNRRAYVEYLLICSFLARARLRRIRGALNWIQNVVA
Assay: co-IP; lysate of 25-30 adult flies (w;PINK1::Myc/+;Actin>Gal4/UAS-ben::V5) in co-IP buffer (40mM HEPES pH 7.5, 120mM NaCl, 1mM EDTA, 0.3% CHAPS, phosphatase inhibitors); PINK1::Myc held on Myc beads 4 hrs at 4°C, washed thrice, eluted with Myc peptide; western blot for Ben::V5

binding: binds
B1: Bendless, C-terminal V5-tagged (Ben::V5) (enzyme, UniProt P35128 1-151)
chain: MSSLPRRIIKETQRLMQEPVPGINAIPDENNARYFHVIVTGPNDSPFEGGVFKLELFLPEDYPMSAPKVRFITKIYHPNIDRLGRICLDVLKDKWSPALQIRTILLSIQALLSAPNPDDPLANDVAELWKVNEAEAIRNAREWTQKYAVED
